Chains of the proteins cited; added tags and fusions are not shown. Lines headed by an entry give the natural chain unless they say otherwise; changes in a name come on top. A line that says so, or that is headed by a name, gives the form on record, which may keep a tag or linker.
GFP-IQSec1 (Q6DN90, form named): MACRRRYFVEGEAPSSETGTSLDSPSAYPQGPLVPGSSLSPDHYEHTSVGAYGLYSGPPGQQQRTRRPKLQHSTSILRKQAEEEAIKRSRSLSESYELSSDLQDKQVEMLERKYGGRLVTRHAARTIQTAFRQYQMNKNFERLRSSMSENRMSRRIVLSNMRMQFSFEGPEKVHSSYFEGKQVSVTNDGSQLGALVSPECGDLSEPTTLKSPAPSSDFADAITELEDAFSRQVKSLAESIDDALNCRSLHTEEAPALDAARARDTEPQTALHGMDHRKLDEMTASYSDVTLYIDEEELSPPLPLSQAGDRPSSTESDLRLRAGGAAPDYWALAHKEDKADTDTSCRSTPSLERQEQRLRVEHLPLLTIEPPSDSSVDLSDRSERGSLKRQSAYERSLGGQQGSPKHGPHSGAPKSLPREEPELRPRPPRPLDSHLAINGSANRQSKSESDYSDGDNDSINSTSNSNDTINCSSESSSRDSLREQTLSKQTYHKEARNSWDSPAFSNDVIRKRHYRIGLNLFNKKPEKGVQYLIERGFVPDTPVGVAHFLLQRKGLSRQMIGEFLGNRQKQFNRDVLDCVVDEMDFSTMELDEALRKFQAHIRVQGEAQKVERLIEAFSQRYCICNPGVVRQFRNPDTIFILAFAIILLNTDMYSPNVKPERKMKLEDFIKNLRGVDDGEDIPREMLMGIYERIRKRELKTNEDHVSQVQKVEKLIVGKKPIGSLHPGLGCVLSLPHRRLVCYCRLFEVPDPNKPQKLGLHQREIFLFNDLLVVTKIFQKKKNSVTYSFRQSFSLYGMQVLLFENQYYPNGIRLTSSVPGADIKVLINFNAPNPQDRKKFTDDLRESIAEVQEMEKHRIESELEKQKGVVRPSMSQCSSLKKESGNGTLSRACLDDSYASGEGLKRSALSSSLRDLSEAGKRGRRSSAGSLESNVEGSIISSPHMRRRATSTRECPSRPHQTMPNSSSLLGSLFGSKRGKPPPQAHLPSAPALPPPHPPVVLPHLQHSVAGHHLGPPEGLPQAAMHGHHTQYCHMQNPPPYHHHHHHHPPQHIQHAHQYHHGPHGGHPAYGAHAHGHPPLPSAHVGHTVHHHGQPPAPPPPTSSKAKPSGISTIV
UniProt P63010: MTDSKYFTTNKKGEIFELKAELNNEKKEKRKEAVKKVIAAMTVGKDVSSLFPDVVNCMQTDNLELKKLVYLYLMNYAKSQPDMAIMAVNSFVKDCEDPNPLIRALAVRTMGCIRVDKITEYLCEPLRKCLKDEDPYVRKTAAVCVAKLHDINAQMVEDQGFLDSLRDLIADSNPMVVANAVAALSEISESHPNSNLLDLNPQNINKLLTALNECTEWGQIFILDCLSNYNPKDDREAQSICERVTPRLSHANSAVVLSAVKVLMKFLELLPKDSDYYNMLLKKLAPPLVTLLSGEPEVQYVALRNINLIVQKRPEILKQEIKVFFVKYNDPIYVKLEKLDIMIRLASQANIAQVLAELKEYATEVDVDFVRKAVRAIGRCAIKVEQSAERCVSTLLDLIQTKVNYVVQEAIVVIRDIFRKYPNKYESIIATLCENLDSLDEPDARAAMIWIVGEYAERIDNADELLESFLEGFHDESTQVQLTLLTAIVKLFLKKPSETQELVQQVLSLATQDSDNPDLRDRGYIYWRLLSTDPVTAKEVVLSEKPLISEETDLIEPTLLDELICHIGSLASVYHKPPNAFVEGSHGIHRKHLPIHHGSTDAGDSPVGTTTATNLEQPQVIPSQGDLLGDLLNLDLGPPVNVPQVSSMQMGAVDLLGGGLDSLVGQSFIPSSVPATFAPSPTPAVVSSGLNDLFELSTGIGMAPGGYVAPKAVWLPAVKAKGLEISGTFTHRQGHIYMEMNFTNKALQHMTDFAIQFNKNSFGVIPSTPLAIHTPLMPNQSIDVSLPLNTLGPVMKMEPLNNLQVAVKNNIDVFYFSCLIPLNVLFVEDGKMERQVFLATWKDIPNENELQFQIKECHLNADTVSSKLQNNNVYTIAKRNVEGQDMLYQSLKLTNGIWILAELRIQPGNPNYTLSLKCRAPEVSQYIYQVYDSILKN
UniProt Q96CW1: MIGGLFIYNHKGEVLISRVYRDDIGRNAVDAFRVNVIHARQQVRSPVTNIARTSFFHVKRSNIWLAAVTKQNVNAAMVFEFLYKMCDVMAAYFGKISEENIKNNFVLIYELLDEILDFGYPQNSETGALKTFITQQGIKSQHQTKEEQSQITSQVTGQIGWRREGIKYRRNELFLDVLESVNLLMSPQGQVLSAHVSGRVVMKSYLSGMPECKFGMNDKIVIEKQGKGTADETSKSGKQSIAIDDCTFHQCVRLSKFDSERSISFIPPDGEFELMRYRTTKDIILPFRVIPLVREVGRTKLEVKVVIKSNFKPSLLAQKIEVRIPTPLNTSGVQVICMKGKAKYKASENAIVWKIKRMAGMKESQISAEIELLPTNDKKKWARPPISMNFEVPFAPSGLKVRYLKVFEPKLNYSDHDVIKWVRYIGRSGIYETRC
UniProt O00151: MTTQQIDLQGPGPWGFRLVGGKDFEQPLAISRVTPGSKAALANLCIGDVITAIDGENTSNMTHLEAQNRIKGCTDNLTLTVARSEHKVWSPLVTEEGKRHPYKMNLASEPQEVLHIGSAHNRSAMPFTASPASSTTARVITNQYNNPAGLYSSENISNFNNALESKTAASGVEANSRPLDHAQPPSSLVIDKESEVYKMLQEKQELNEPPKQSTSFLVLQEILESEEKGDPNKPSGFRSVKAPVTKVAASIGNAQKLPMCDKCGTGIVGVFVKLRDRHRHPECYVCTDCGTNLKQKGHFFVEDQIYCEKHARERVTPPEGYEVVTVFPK
UniProt Q9UDY2: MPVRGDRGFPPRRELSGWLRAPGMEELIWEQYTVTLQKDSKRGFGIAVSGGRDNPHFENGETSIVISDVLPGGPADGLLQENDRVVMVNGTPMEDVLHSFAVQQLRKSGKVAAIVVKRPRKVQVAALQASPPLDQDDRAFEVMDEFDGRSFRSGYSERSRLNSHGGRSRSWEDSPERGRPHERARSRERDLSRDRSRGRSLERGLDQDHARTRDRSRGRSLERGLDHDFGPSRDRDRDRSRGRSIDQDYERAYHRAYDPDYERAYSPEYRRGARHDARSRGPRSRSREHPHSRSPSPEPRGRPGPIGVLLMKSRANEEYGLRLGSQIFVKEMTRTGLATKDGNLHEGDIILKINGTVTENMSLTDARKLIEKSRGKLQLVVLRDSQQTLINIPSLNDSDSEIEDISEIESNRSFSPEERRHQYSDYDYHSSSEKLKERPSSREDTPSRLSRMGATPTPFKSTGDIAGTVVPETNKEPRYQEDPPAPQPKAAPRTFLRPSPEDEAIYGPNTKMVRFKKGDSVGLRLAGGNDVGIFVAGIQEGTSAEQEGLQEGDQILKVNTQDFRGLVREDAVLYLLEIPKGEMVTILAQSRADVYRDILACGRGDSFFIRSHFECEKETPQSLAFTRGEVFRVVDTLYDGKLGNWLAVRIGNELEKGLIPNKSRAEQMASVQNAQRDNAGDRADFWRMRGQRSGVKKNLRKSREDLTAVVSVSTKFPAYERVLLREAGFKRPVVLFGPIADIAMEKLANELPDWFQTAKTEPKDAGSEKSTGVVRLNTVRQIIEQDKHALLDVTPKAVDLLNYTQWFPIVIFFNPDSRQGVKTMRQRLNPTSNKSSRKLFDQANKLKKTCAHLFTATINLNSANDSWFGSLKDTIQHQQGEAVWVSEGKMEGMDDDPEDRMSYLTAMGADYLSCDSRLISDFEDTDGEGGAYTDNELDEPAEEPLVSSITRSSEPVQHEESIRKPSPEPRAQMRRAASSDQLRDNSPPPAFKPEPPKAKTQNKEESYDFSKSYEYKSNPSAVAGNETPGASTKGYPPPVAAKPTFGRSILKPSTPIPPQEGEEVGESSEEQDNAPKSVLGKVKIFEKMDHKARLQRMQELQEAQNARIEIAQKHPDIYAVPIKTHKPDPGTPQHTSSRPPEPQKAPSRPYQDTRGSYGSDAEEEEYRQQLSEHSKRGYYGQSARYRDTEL
UniProt Q00610: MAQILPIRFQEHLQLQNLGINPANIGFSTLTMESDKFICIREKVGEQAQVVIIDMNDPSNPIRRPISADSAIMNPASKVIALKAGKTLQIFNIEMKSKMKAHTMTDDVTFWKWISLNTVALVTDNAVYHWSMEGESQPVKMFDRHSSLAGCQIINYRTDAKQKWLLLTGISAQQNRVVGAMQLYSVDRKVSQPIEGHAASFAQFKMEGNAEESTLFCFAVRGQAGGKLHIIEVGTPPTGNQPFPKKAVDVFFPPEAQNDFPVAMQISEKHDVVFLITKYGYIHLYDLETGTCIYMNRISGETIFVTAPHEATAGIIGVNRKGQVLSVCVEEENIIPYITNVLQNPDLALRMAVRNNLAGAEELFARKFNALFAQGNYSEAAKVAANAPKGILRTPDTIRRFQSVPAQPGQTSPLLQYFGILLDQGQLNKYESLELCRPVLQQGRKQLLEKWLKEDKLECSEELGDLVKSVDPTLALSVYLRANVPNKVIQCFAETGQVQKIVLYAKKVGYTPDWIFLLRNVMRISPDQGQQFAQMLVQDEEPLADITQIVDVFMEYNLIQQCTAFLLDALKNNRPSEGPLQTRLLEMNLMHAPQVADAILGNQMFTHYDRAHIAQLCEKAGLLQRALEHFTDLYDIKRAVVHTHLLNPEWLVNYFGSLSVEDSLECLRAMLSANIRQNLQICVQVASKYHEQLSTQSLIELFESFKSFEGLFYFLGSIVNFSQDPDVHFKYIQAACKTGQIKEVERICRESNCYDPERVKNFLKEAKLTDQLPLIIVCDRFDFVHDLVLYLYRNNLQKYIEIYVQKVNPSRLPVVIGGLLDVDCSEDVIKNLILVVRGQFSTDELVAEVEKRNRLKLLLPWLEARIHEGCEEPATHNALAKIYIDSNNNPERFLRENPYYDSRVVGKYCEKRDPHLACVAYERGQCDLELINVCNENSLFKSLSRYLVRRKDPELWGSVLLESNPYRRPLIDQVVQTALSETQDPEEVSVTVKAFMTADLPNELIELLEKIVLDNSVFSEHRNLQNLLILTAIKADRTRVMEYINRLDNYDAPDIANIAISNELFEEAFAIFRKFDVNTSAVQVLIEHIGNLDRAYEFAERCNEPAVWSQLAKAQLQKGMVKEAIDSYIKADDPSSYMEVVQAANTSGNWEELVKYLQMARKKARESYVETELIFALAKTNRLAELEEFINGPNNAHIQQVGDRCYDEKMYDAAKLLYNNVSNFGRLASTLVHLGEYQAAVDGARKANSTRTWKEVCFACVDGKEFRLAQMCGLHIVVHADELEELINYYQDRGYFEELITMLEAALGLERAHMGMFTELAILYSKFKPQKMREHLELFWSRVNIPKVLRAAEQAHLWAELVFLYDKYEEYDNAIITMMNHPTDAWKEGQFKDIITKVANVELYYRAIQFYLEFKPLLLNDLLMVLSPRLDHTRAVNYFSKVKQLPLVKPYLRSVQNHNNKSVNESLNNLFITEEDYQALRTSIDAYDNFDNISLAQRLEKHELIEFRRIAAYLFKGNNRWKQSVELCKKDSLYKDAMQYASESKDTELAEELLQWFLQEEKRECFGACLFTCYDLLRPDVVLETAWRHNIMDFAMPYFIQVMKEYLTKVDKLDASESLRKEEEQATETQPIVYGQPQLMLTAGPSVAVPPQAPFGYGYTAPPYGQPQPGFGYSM
UniProt Q9H4L5: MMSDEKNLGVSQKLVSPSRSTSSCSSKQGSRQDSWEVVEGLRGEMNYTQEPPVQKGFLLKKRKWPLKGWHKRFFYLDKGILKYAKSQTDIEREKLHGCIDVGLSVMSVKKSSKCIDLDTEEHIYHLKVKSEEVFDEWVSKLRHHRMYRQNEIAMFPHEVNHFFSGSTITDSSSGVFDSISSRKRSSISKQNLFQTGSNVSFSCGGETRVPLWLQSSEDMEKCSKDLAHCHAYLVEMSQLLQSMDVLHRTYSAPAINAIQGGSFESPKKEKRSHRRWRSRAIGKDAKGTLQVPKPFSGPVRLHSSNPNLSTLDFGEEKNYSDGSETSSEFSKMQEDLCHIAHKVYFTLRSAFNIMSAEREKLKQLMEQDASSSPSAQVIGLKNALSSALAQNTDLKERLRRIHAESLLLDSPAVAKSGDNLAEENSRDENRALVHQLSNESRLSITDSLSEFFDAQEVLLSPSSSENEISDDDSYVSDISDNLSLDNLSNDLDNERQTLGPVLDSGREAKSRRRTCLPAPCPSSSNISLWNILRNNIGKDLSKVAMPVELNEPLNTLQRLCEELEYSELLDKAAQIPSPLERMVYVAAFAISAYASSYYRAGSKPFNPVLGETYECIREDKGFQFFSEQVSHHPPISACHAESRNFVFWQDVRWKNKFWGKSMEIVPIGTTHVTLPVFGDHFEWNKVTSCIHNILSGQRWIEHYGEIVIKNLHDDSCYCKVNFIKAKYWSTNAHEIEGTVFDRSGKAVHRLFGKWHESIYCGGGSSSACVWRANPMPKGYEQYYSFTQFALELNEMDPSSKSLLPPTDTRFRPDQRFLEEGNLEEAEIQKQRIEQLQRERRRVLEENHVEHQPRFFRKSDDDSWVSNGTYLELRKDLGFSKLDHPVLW

According to publication PMC7159923:

B1: MAGI3 (protein, UniProt Q5TCQ9 1-1481)
chain: MSKTLKKKKHWLSKVQECAVSWAGPPGDFGAEIRGGAERGEFPYLGRLREEPGGGTCCVVSGKAPSPGDVLLEVNGTPVSGLTNRDTLAVIRHFREPIRLKTVKPGKVINKDLRHYLSLQFQKGSIDHKLQQVIRDNLYLRTIPCTTRAPRDGEVPGVDYNFISVEQFKALEESGALLESGTYDGNFYGTPKPPAEPSPFQPDPVDQVLFDNEFDAESQRKRTTSVSKMERMDSSLPEEEEDEDKEAINGSGNAENRERHSESSDWMKTVPSYNQTNSSMDFRNYMMRDETLEPLPKNWEMAYTDTGMIYFIDHNTKTTTWLDPRLCKKAKAPEDCEDGELPYGWEKIEDPQYGTYYVDHLNQKTQFENPVEEAKRKKQLGQVEIGSSKPDMEKSHFTRDPSQLKGVLVRASLKKSTMGFGFTIIGGDRPDEFLQVKNVLKDGPAAQDGKIAPGDVIVDINGNCVLGHTHADVVQMFQLVPVNQYVNLTLCRGYPLPDDSEDPVVDIVAATPVINGQSLTKGETCMNPQDFKPGAMVLEQNGKSGHTLTGDGLNGPSDASEQRVSMASSGSSQPELVTIPLIKGPKGFGFAIADSPTGQKVKMILDSQWCQGLQKGDIIKEIYHQNVQNLTHLQVVEVLKQFPVGADVPLLILRGGPPSPTKTAKMKTDKKENAGSLEAINEPIPQPMPFPPSIIRSGSPKLDPSEVYLKSKTLYEDKPPNTKDLDVFLRKQESGFGFRVLGGDGPDQSIYIGAIIPLGAAEKDGRLRAADELMCIDGIPVKGKSHKQVLDLMTTAARNGHVLLTVRRKIFYGEKQPEDDSSQAFISTQNGSPRLNRAEVPARPAPQEPYDVVLQRKENEGFGFVILTSKNKPPPGVIPHKIGRVIEGSPADRCGKLKVGDHISAVNGQSIVELSHDNIVQLIKDAGVTVTLTVIAEEEHHGPPSGTNSARQSPALQHRPMGQSQANHIPGDRSALEGEIGKDVSTSYRHSWSDHKHLAQPDTAVISVVGSRHNQNLGCYPVELERGPRGFGFSLRGGKEYNMGLFILRLAEDGPAIKDGRIHVGDQIVEINGEPTQGITHTRAIELIQAGGNKVLLLLRPGTGLIPDHGDWDINNPSSSNVIYDEQSPLPPSSHFASIFEESHVPVIEESLRVQICEKAEELKDIVPEKKSTLNENQPEIKHQSLLQKNVSKRDPPSSHGHSNKKNLLKVENGVTRRGRSVSPKKPASQHSEEHLDKIPSPLKNNPKRRPRDQSLSPSKGENKSCQVSTRAGSGQDQCRKSRGRSASPKKQQKIEGSKAPSNAEAKLLEGKSRRIAGYTGSNAEQIPDGKEKSDVIRKDAKQNQLEKSRTRSPEKKIKRMVEKSLPSKMTNKTTSKEVSENEKGKKVTTGETSSSNDKIGENVQLSEKRLKQEPEEKVVSNKTEDHKGKELEAADKNKETGRFKPESSSPVKKTLITPGPWKVPSGNKVTGTIGMAEKRQ
B2: GIPC1 (protein, UniProt O14908 1-333)
chain: MPLGLGRRKKAPPLVENEEAEPGRGGLGVGEPGPLGGGGSGGPQMGLPPPPPALRPRLVFHTQLAHGSPTGRIEGFTNVKELYGKIAEAFRLPTAEVMFCTLNTHKVDMDKLLGGQIGLEDFIFAHVKGQRKEVEVFKSEDALGLTITDNGAGYAFIKRIKEGSVIDHIHLISVGDMIEAINGQSLLGCRHYEVARLLKELPRGRTFTLKLTEPRKAFDMISQRSAGGRPGSGPQLGTGRGTLRLRSRGPATVEDLPSAFEEKAIEKVDDLLESYMGIRDTELAATMVELGKDKRNPDELAEALDERLGDFAFPDEFVFDVWGAIGDAKVGRY

biological target: GFP-IQSec1 (human) (UniProt Q6DN90); assay: affinity purification with mass spectrometry; GFP-IQSec1 expressed in HEK-293; NP-40 lysis buffer (0.1% Nonidet P-40, Tris HCl pH7.4, 150 mM NaCl); GFP-TRAP_A beads 60 min; gel bands analysed by LC-MS/MS

| binding | Molecule |
| --- | --- |
| binds | B1 |
| binds | B2 |

biological target: GFP-IQSec1 (human) (UniProt Q6DN90); assay: as above; remark: another data set of the same source

| binding | Molecule |
| --- | --- |
| binds | AP2A1 (from UniProt O95782 1-977) |
| binds | AP2B1 (from UniProt P63010 1-937) |
| binds | AP2M1 (from UniProt Q96CW1 1-435) |
| binds | PDLIM1 (from UniProt O00151 1-329) |
| binds | PDLIM7 (from UniProt Q9NR12 1-457) |
| binds | PTPN13 (from UniProt Q12923 1-2485) |
| binds | SCRB1 (from UniProt Q14160 1-1655) |
| binds | ZO-2 (from UniProt Q9UDY2 1-1190) |
| binds | clathrin heavy chain (CLTC) (from UniProt Q00610 1-1675) |
| binds | oxysterol binding protein related protein 3 (ORP3) (from UniProt Q9H4L5 1-887) |

Results are given in words; binding and its absence hold for the method and conditions named. In cells and extracts the contact can be indirect. These calls come from enrichment with a bait or labelling near it, and not all partners need be listed.
